{"source": "paper PMC13534636", "system": "ETV5", "assay": "EMSA", "conditions": "ETV5 60-240 nM, probe 5 nM, diffuse high-MW smear; 20 mM HEPES-KOH pH 7.5, 5 mM MgCl2, 50 mM KCl, 10 mM DTT, 10% glycerol; 5 nM probe, 25 min at 25 C; 6% PAGE in 0.5x TBE; commercial protein; label: 5'-FAM on sense strand", "note": "Construct, isoform or probe ends are uncertain for at least one entry."}
{"sequence": "TTTTAACGGCGTGGTTTGAATGTTGCACTGGGTCCACCTGCCTCTGTCTCCGGCTGCGGGGACGTTCGGA (double strand) [MRPL30 probe (WT)]", "values": [{"measurement": "binding result", "result": "binds"}]}
